The series is described as follows: Serum T4 concentration by this RIA. Also noted: species or system human.

These results are taken from patent publication USRE32098E (Research and Education Institute, Inc., priority 1978, dated 1986).

For the molecule `N[C@@H](Cc1cc(I)c(Oc2cc(I)c(O)c(I)c2)c(I)c1)C(=O)O` [T4, thyroxine], the “Serum T4 (Mean ± SEM)” value amounted to 13.2 ± 0.79 ug/100 ml (Estrogen-treated), 8.33 ± 0.38 ug/100 ml (Euthyroid), 24.6 ± 1.39 ug/100 ml (Hyperthyroid) and 3.45 ± 0.36 ug/100 ml (Hypothyroid).
